Data reported in PubChem BioAssay AID330 (DTP/NCI, 2004).
The list is a part of this screen's results and no random one: it gathers tests that were run many times, whatever their T/C, doses with no T/C, and many T/C values between a quarter and a half above the control. Other doses and runs of a compound stand elsewhere. T/C gives the treated animals as a percentage of the vehicle group. Some entries give survivors of the animals treated and no T/C: the source holds a T/C of zero for them, seemingly a mark for toxic or unscored doses. Some survivor counts are full or nearly so, which does not show that the dose was tolerated: survival well below the control is almost never listed, so the zero probably covers shortened survival too. Counts of survivors are from the toxicity check (mostly the fifth day) where no day follows; animals may have died later. Schedule codes are those of the source, taken here to give the interval after Q, in days (D) or hours (H), and the number of doses after X. Some entries were tested several times; their values stand side by side, smallest first. Signs of the kind (2×) give the number of equal values in this list. For survival time, this PubChem deposit counts one and a half times the control or more as active, and values a quarter to a half above the control carry no call in these data; other NCI protocols may use other cut-offs. Some T/C values carry the count of animals alive at the toxicity check (mostly the fifth day); without a count, all were alive then.

System: P388 leukemia ip, CD2F1 mice, survival T/C
Test: NCI In Vivo Anticancer Drug Screen. Data for tumor model P388 Leukemia (intraperitoneal) in CD2F1 (CDF1) mice
Conditions: T/C endpoint: median survival time, higher T/C = longer survival
[1] = dose: 200.0 micrograms/kg/injection, schedule: Q01DX009 (ip), vehicle: saline + alcohol

In the case of `Cc1c2oc3c(C)ccc(C(=O)N[C@@H]4C(=O)N[C@H](C(C)C)C(=O)N5CCC[C@H]5C(=O)N(C)CC(=O)N(C)[C@@H](C(C)C)C(=O)O[C@H]4C)c3nc-2c(C(=O)N[C@@H]2C(=O)N[C@H](C(C)C)C(=O)N3CCC[C@H]3C(=O)N(C)CC(=O)N(C)[C@@H](C(C)C)C(=O)O[C@H]2C)c(N)c1=O`, the T/C (dose: 0.33 mg/kg/injection, schedule: Q01DX001 (ip), vehicle: saline, evaluated on day 30) is reported as 172 % of control, the T/C (dose: 0.33 mg/kg/injection, schedule: Q01DX001 (ip), vehicle: saline, evaluated on day 45) is reported as 150 and 166 % of control and the T/C (dose: 0.33 mg/kg/injection, schedule: Q01DX001 (ip), vehicle: saline, evaluated on day 60) is reported as 141, 151, 152, 155 % of control. The T/C (dose: 0.4 mg/kg/injection, schedule: Q01DX001 (ip), vehicle: water, evaluated on day 5) was 90, 161, 201 % of control, the T/C (dose: 0.4 mg/kg/injection, schedule: Q01DX001 (ip), vehicle: water, evaluated on day 35) was 90 % of control [7 of 8 alive] and the T/C (dose: 0.4 mg/kg/injection, schedule: Q01DX001 (ip), vehicle: water, evaluated on day 45) was 201 % of control [7 of 8 alive]. For the same compound, the T/C (dose: 0.5 mg/kg/injection, schedule: Q01DX001 (ip), vehicle: saline, evaluated on day 30) was 181 % of control [9 of 10 alive], the T/C (dose: 0.5 mg/kg/injection, schedule: Q01DX001 (ip), vehicle: saline, evaluated on day 45) was 156 and 160 % of control and the T/C (dose: 0.5 mg/kg/injection, schedule: Q01DX001 (ip), vehicle: saline, evaluated on day 60) was 143 [9 of 10 alive], 154, 157, 161, 163, 169 % of control. The T/C (dose: 0.5 mg/kg/injection, schedule: Q01DX001 (ip), vehicle: water, evaluated on day 5) was 72 and 203 % of control, the T/C (dose: 0.5 mg/kg/injection, schedule: Q01DX001 (ip), vehicle: water, evaluated on day 45) was 203 % of control and the survivor count (dose: 0.5 mg/kg/injection, schedule: Q01DX001 (ip), vehicle: water) was 8 of 8. The survivor count (dose: 0.5 mg/kg/injection, schedule: Q01DX009 (ip), vehicle: water) was 0 of 3, the survivor count (dose: 0.6 mg/kg/injection, schedule: Q04DX003 (ip), vehicle: saline + alcohol) was 2 of 8 and the T/C (dose: 0.75 mg/kg/injection, schedule: Q01DX001 (ip), vehicle: saline, evaluated on day 5) was 182 % of control. For the same compound, the T/C (dose: 0.75 mg/kg/injection, schedule: Q01DX001 (ip), vehicle: saline, evaluated on day 30) was 186 % of control [8 of 10 alive], the T/C (dose: 0.75 mg/kg/injection, schedule: Q01DX001 (ip), vehicle: saline, evaluated on day 45) was 185 and 192 % of control and the T/C (dose: 0.75 mg/kg/injection, schedule: Q01DX001 (ip), vehicle: saline, evaluated on day 60) was 169, 171 [9 of 10 alive], 172, 175, 176, 182 % of control. The survivor count (dose: 1.0 mg/kg/injection, schedule: Q01DX009 (ip), vehicle: water) was 0 of 3, the survivor count (dose: 1.0 mg/kg/injection, schedule: Q04DX002 (ip), vehicle: saline + alcohol) was 8 of 8 and the T/C (dose: 6.25 micrograms/kg/injection, schedule: Q01DX009 (ip), vehicle: saline + alcohol) was 120, 134, 144, 154 % of control. For the same compound, the T/C (dose: 6.25 micrograms/kg/injection, schedule: Q01DX009 (ip), vehicle: saline) was 147 % of control, the T/C (dose: 6.3 micrograms/kg/injection, schedule: Q01DX005 (ip), vehicle: saline + alcohol) was 133 % of control and the T/C (dose: 6.3 micrograms/kg/injection, schedule: Q01DX009 (ip), vehicle: saline, evaluated on day 30) was 124, 140, 148, 156 % of control. For the same compound, the T/C (dose: 6.3 micrograms/kg/injection, schedule: Q01DX009 (ip), vehicle: saline, evaluated on day 35) was 141 % of control, the T/C (dose: 6.3 micrograms/kg/injection, schedule: Q01DX009 (ip), vehicle: water, evaluated on day 30) was 97, 129, 135 [5 of 6 alive], 136, 137, 148, 152 (2×), 161, 189 % of control and the T/C (dose: 6.3 micrograms/kg/injection, schedule: Q01DX009 (ip), vehicle: water, evaluated on day 35) was 134 and 160 % of control. For the same compound, the T/C (dose: 12.5 micrograms/kg/injection, schedule: Q01DX005 (ip), vehicle: saline + alcohol) was 134 % of control, the T/C (dose: 12.5 micrograms/kg/injection, schedule: Q01DX009 (ip), vehicle: saline + alcohol) was 143, 145, 152, 153, 174 % of control and the T/C (dose: 12.5 micrograms/kg/injection, schedule: Q01DX009 (ip), vehicle: saline, evaluated on day 30) was 137, 144, 157, 163, 166 % of control (2×). The T/C (dose: 12.5 micrograms/kg/injection, schedule: Q01DX009 (ip), vehicle: saline, evaluated on day 35) was 146 % of control, the T/C (dose: 12.5 micrograms/kg/injection, schedule: Q01DX009 (ip), vehicle: water, evaluated on day 30) was 106, 134, 136, 147, 151, 155, 157, 158, 163 (2×), 168, 175, 181 (2×), 189, 203, 218 % of control and the T/C (dose: 12.5 micrograms/kg/injection, schedule: Q01DX009 (ip), vehicle: water, evaluated on day 35) was 148 and 154 % of control. For the same compound, the T/C (dose: 12.5 micrograms/kg/injection, schedule: Q01DX009 (ip), vehicle: water, evaluated on day 45) was 167 % of control, the T/C (dose: 13.0 micrograms/kg/injection, schedule: Q01DX009 (ip), vehicle: water) was 166, 188, 189, 237 % of control and the T/C (dose: 25.0 micrograms/kg/injection, schedule: Q01DX005 (ip), vehicle: saline + alcohol) was 140 % of control. For the same compound, the T/C (dose: 25.0 micrograms/kg/injection, schedule: Q01DX009 (ip), vehicle: saline + alcohol) was 153, 156, 162 (2×), 186 % of control, the T/C (dose: 25.0 micrograms/kg/injection, schedule: Q01DX009 (ip), vehicle: saline, evaluated on day 30) was 150, 155, 166, 168, 208, 246 % of control and the T/C (dose: 25.0 micrograms/kg/injection, schedule: Q01DX009 (ip), vehicle: saline, evaluated on day 35) was 151 % of control. The T/C (dose: 25.0 micrograms/kg/injection, schedule: Q01DX009 (ip), vehicle: water, evaluated on day 30) was 108, 114, 141, 152 (2×), 161, 168, 170, 173, 181, 186 [5 of 6 alive], 187, 194, 200, 206, 215, 245 (2×), 263 % of control, the T/C (dose: 25.0 micrograms/kg/injection, schedule: Q01DX009 (ip), vehicle: water, evaluated on day 35) was 150 and 196 % of control and the T/C (dose: 25.0 micrograms/kg/injection, schedule: Q01DX009 (ip), vehicle: water, evaluated on day 45) was 183 % of control. For the same compound, the survivor count (dose: 25.0 micrograms/kg/injection, schedule: Q01DX009 (ip), vehicle: water) was 6 of 6, the T/C (dose: 50.0 micrograms/kg/injection, schedule: Q01DX009 (ip), vehicle: saline + alcohol, evaluated on day 30) was 155, 171, 185, 196, 232 % of control and the T/C (dose: 50.0 micrograms/kg/injection, schedule: Q01DX009 (ip), vehicle: saline + alcohol, evaluated on day 35) was 179 % of control. For the same compound, the T/C (dose: 50.0 micrograms/kg/injection, schedule: Q01DX009 (ip), vehicle: saline, evaluated on day 30) was 153, 172, 194 [5 of 6 alive], 205, 206, 225 % of control, the T/C (dose: 50.0 micrograms/kg/injection, schedule: Q01DX009 (ip), vehicle: saline, evaluated on day 35) was 164 % of control and the T/C (dose: 50.0 micrograms/kg/injection, schedule: Q01DX009 (ip), vehicle: water, evaluated on day 30) was 100, 107, 124, 136, 159 [5 of 6 alive], 178, 180, 218, 222, 225, 227, 235, 250, 252, 267 % of control. The T/C (dose: 50.0 micrograms/kg/injection, schedule: Q01DX009 (ip), vehicle: water, evaluated on day 35) was 179 and 285 % of control, the T/C (dose: 50.0 micrograms/kg/injection, schedule: Q01DX009 (ip), vehicle: water, evaluated on day 45) was 293 % of control and the survivor count (dose: 50.0 micrograms/kg/injection, schedule: Q01DX009 (ip), vehicle: water) was 5 of 6 and 6 of 6. For the same compound, the T/C (dose: 64.8 micrograms/kg/injection, schedule: Q04DX003 (ip), vehicle: saline + alcohol) was 130 % of control, the survivor count (dose: 100.0 micrograms/kg/injection, schedule: Q01DX005 (ip), vehicle: saline + alcohol) was 6 of 6 and the T/C (dose: 100.0 micrograms/kg/injection, schedule: Q01DX009 (ip), vehicle: saline + alcohol) was 94, 119, 166, 180, 198 % of control. For the same compound, the T/C (dose: 100.0 micrograms/kg/injection, schedule: Q01DX009 (ip), vehicle: saline, evaluated on day 30) was 91, 185, 188, 200, 224 % of control, the T/C (dose: 100.0 micrograms/kg/injection, schedule: Q01DX009 (ip), vehicle: saline, evaluated on day 35) was 241 % of control and the T/C (dose: 100.0 micrograms/kg/injection, schedule: Q01DX009 (ip), vehicle: water, evaluated on day 30) was 101, 131, 133, 150, 176, 243, 247 [2 of 3 alive], 272, 279 % of control. The T/C (dose: 100.0 micrograms/kg/injection, schedule: Q01DX009 (ip), vehicle: water, evaluated on day 35) was 196 % of control, the T/C (dose: 100.0 micrograms/kg/injection, schedule: Q01DX009 (ip), vehicle: water, evaluated on day 45) was 88 % of control and the survivor count (dose: 100.0 micrograms/kg/injection, schedule: Q01DX009 (ip), vehicle: water) was 0 of 6, 4 of 6, 5 of 6, 6 of 6 (2×). For the same compound, the T/C (dose: 108.0 micrograms/kg/injection, schedule: Q04DX003 (ip), vehicle: saline + alcohol) was 135 and 142 % of control, the T/C (dose: 180.0 micrograms/kg/injection, schedule: Q04DX003 (ip), vehicle: saline + alcohol) was 148 % of control and the T/C [1] was 243 and 254 % of control. The survivor count [1] was 5 of 6 and 6 of 6, the T/C (dose: 200.0 micrograms/kg/injection, schedule: Q01DX009 (ip), vehicle: saline, evaluated on day 30) was 94 % of control and the T/C (dose: 200.0 micrograms/kg/injection, schedule: Q01DX009 (ip), vehicle: saline, evaluated on day 35) was 315 % of control. The survivor count (dose: 200.0 micrograms/kg/injection, schedule: Q01DX009 (ip), vehicle: saline) was 5 of 6 and 6 of 6 (2×), the T/C (dose: 200.0 micrograms/kg/injection, schedule: Q01DX009 (ip), vehicle: water, evaluated on day 30) was 100 and 143 % of control and the T/C (dose: 200.0 micrograms/kg/injection, schedule: Q01DX009 (ip), vehicle: water, evaluated on day 35) was 273 % of control. The survivor count (dose: 200.0 micrograms/kg/injection, schedule: Q01DX009 (ip), vehicle: water) was 0 of 6, 3 of 6, 3 of 3, 6 of 6 (2×), the survivor count (dose: 400.0 micrograms/kg/injection, schedule: Q01DX009 (ip), vehicle: saline + alcohol) was 4 of 6, 5 of 6, 6 of 6 and the survivor count (dose: 400.0 micrograms/kg/injection, schedule: Q01DX009 (ip), vehicle: saline) was 3 of 6, 4 of 6, 5 of 6, 6 of 6. For the same compound, the survivor count (dose: 400.0 micrograms/kg/injection, schedule: Q01DX009 (ip), vehicle: water) was 0 of 6 (2×), 1 of 6, 2 of 6, 2 of 3, 5 of 6.
